# Where no end group is shown, it is not given here.
# Assay: peptide made by a vendor
# Conditions: whole synthesis
substance,measurement,value
CCVVVT-OH (cysteine pairing not given here),purity (crude or final not stated),98.5%

# Source: patent US8263133B2 (The Regents of the University of California, priority 2009, dated 2012)
